Data from article PMC4751430.
No constants are given. Whether binding was seen depends on the method and setting. Binding seen in cells or lysates may run through a third protein. Some entries that bind do so weakly or less than the wild type. For part of these data: Tags and fused reporters may be left off the sequences shown.

By UniProt entry, the sequences of proteins in these tests, tags left out.
UniProt Q9EP80: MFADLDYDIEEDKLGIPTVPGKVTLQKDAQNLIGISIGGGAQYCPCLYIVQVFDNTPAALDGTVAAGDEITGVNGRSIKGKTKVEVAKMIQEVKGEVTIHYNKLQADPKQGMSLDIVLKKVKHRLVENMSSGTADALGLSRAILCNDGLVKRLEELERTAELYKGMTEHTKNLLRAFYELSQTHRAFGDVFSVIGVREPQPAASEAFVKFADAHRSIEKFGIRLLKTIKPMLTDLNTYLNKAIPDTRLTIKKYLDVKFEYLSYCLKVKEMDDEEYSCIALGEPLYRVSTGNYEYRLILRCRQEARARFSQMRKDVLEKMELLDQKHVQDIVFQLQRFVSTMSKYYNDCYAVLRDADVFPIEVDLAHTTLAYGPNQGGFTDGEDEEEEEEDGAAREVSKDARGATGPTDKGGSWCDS
UniProt Q62083: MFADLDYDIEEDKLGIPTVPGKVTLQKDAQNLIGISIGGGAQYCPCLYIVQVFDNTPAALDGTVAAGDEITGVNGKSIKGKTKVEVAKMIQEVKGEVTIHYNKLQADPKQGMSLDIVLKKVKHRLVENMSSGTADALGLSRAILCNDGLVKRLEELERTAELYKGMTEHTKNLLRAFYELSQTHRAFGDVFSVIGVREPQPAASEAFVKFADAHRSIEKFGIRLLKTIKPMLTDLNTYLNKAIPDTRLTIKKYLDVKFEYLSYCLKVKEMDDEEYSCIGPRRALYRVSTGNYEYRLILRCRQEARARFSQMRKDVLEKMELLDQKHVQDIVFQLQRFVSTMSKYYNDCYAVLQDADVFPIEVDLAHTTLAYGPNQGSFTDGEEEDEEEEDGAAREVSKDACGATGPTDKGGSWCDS

Assays:
myc-PICK1 (rat) = myc-PICK1 (rat) (UniProt Q9EP80); assay: co-IP; HEK293T cells transfected with GFP-Syntabulin and myc-ASIC2a or myc-ASIC1a together with myc-PICK1; immunoprecipitated with GFP antibody
[1] = molecular target: endogenous PICK1 (mouse brain homogenate) (mouse (endogenous in mouse brain)) (UniProt Q62083); assay: co-IP; endogenous proteins, mouse brain homogenate, with syntabulin or PICK1 antibodies

Row | binding (myc-PICK1 (rat)) | binding [1] | Molecule
1 | binds |  | myc-ASIC2a (from UniProt Q16515-1 1-512) (receptor)
2 |  | no binding | endogenous syntabulin (mouse brain homogenate) (protein, UniProt Q8BHS8 1-665) MGPLRESKKEQRVQHQEKEISRSRIPRLILRPHRPQQQQQQQNKVSPASESPFSEEESREFNPSSSGRSARTISSNSFCSDDTGCPSSQSVSPVKTPSDTGHSPIGFCPGSDEDFTRKKCRIGMVGEGSIQSARHKKEPKGGIIKPGSEADFSSSSSTGSISAPEVHMSTTGNKRASFSRNRGPHGRSNGASSHKSGSSPPSPREKDLVSMLCRNPLSPSNIHPSYAPSSPSSSNSGSYKGSDCSPVMRRSGRYMSCGENHGVKPPNPEQYLTPLQQKEVTVRHLRTKLKESERRLHERESEIMELKSQLARMREDWIEEECHRVEAQLALKEARKEIKQLKQVIETMRSSLADKDKGIQKYFVDINIQNKKLESLLQSMEMAHNSSLRDELCLDFSFDSPEKSLPLSSTFDKLPDGLSLEEQITEEGADSELLVGDSMAEGTDLLDEMVTATTTESSGLEFVHSTPGPQALKALPLVSHEEGIAVMEQAVQTDVVPFSPAISELIQSVLKLQDYCPTSSASPDESGADSMESFSESISALMLDLTPRSPNSAILLSPVEIPFSKGAMEAHANRLMRELDFAAYTEERLDSVLSLSQGSVVRQYWSSNFLVDLLAVAAPVVPTVLWAFSTQRGGTDPVYNIGALLRGCCVVALHSLRRTAFHMKT
3 | binds |  | myc-ASIC1a (receptor, UniProt P78348-2 1-528) MELKAEEEEVGGVQPVSIQAFASSSTLHGLAHIFSYERLSLKRALWALCFLGSLAVLLCVCTERVQYYFHYHHVTKLDEVAASQLTFPAVTLCNLNEFRFSQVSKNDLYHAGELLALLNNRYEIPDTQMADEKQLEILQDKANFRSFKPKPFNMREFYDRAGHDIRDMLLSCHFRGEVCSAEDFKVVFTRYGKCYTFNSGRDGRPRLKTMKGGTGNGLEIMLDIQQDEYLPVWGETDETSFEAGIKVQIHSQDEPPFIDQLGFGVAPGFQTFVACQEQRLIYLPPPWGTCKAVTMDSDLDFFDSYSITACRIDCETRYLVENCNCRMVHMPGDAPYCTPEQYKECADPALDFLVEKDQEYCVCEMPCNLTRYGKELSMVKIPSKASAKYLAKKFNKSEQYIGENILVLDIFFEVLNYETIEQKKAYEIAGLLGDIGGQMGLFIGASILTVLELFDYAYEVIKHKLCRRGKCQKEAKRSSADKGVALSLDDVKRHNPCESLRGHPAGMTYAANILPHHPARGTFEDFTC
